Measurements from patent publication EP0226513A1, “Peptides capable of inhibiting interactions between antigens and lymphocytes T4, products derived therefrom and their applications” (INSTITUT PASTEUR, priority 1985, dated 1987).
Entries after “also recorded” stand apart in the source; their conditions may differ. At least one peptide structure holds a part that was inferred or is arguable (an end, a ring closure or a residue). Where no end group is shown, it is not given here.

Experiments:
lymphocytes T4 = assay: Binding of fluorescein-labelled LAV (LAV FITC) to its membrane receptor on T4 cells after preincubation with peptide; format: cell-based; conditions: T4 cells preincubated with peptide 30 minutes at 4°, washed, then LAV FITC; complete inhibition down to this concentration
clone T helper SB 12 = assay: Antigen-specific proliferation of T helper clone SB 12; format: cell-based

Row | Sequence | concentrations du peptide inhibant complètement la fixation du LAV FITC à son récepteur (lymphocytes T4) | inhibition de la prolifération spécifique du clone T helper SB 12 (clone T helper SB 12)
1 | RFDSAARFDS [RFDS AA RFDS, Arg-Phe-Asp-Ser-Ala-Ala-Arg-Phe-Asp-Ser] | ≥ 1 microgramme par millilitre | 
2 | EEYDRFDSDVGE [DR-12, EEYDRFDSDVGE] |  | aucune inhibition; also recorded: n'est ni inhibée; also recorded: n'est inhibée ni
